# In PubChem BioAssay AID493014 (National Center for Advancing Translational Sciences (NCATS), 2011):
# The list shows a part of the results. Further columns of the screen follow, without active or inactive calls. Most of these compounds were active or inconclusive in the main read-out, so they are no random draw. Potencies come from curve fits of mixed quality, noted in brackets.
# Test: qHTS Assay to Find Inhibitors of Chronic Active B-Cell Receptor Signaling
# Conditions: ABC-DLBCL IkBa-CBG/CBR reporter, luminescence ratio (green luciferase fused to IkBa over red control in TMD8 lymphoma cells), 4 h
# Summary of the method: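 Doxycycline induced both beetle luciferases in TMD8 lymphoma cells; IKK-driven degradation limits the IkappaBalpha-fused green signal, while red luminescence normalises for cell number and nonspecific effects. Compounds tested up to 46 uM, 4 hrs.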
# [1] = measured here: CBR red luminescence, cell number
# [2] = measured here: IkBa-CBG green luminescence
Structure (SMILES),AC50 [1],AC50 [2]
COc1ccc(NC(=O)c2ccc3[nH]c(C)c(C)c3c2)cc1,"7.94 µM [falling, partial curve, poor fit]",
O=C(O)c1ccccc1SC1CC(=O)N(c2ccccc2)C1=O (stereo not drawn),"5.17 µM [falling, partial curve]",
O=C(Nc1ccccc1C(=O)O)c1ccc(Br)o1,"1.58 µM [falling, full curve]",
CC1(C)CC[C@]2(C(=O)O)[C@H](O)C[C@]3(C)C(=CCC4[C@@]5(C)C[C@H](O)[C@H](O)[C@@](C)(CO)C5CC[C@]43C)[C@@H]2C1 (stereo partly drawn),"3.66 µM [falling, partial curve]","3.66 µM [rising, partial curve, poor fit]"
CCOC(=O)c1c(NC(=O)Cn2cnc([N+](=O)[O-])n2)sc2c1CCCC2,"4.61 µM [falling, partial curve, poor fit]",
COc1ccc(C(=O)NCCC2=CCCCC2)cc1,"29.1 µM [falling, single point]",
CCN(CCCNC(=O)CNC(=O)Cn1cnc2ccccc2c1=O)c1cccc(C)c1,"9.2 µM [rising, partial curve, poor fit]",
CC(C)C(=O)Nc1cccc(-c2csc(-c3ccccc3)n2)c1,"16.4 µM [falling, partial curve]",
CC(C)CSC1=NSC2=NC(=O)/C(=C\c3cccs3)C(=N)N12,"4.61 µM [rising, single point]",
Nc1nc(SCC(=O)Nc2c(Br)cc([N+](=O)[O-])cc2Br)n[nH]1,"13 µM [rising, partial curve, poor fit]",
CN(CC(=O)Nc1ccc(F)c(F)c1F)C(=O)c1ccc(-n2cncn2)cc1,"3.66 µM [falling, partial curve, poor fit]",
Cc1ccc(S(=O)(=O)/C(=C/Cl)NC(=O)c2ccccc2)cc1,"5.17 µM [falling, partial curve, poor fit]","5.17 µM [rising, partial curve]"
O=c1c2ccccc2nc(SCc2nc3ccccc3s2)n1CCCO,"0.291 µM [rising, full curve]",
NS(=O)(=O)c1ccc(-c2ccc(/C=C3\SC(=O)NC3=O)o2)cc1,"35.5 µM [falling, single point]",
C/C(CC(=O)Nc1ccc(Cl)cc1C(F)(F)F)=N\NC(N)=S,,"35.5 µM [falling, single point]"
O=C(/C=C\c1ccc2c(c1)OCO2)NC1(C(=O)Nc2ccc3c(c2)OCCO3)CCCCC1,"29.1 µM [falling, single point]",
CC(=O)NC1=C(N(C)C2CCS(=O)(=O)C2)C(=O)c2ccccc2C1=O (stereo not drawn),"7.31 µM [falling, partial curve]",
O=C(Nc1nccs1)c1ccc(F)c(S(=O)(=O)N2CCOCC2)c1,"22.4 µM [falling, partial curve, poor fit]",
CC(Oc1ccc(Cl)cc1)C(=O)Nc1nccs1 (stereo not drawn),"14.1 µM [falling, single point]",
CC1(C)Cc2nc3oc4c(=S)nc[nH]c4c3cc2CO1,"6.31 µM [rising, single point]",

Structure (SMILES),AC50 [1],AC50 [2]
O=C(NN1C(=O)/C(=C/C=C/c2ccccc2)SC1=S)c1ccncc1,"12.6 µM [falling, single point]",
Cc1ccccc1NC(=O)c1sc2nc(N3CCOCC3)c3c(c2c1N)CCCC3,"17.8 µM [falling, single point]",
Cc1ccc(NC(=O)CN(C)C(=O)COC(=O)CNS(=O)(=O)c2ccc(F)c(F)c2F)cc1,"1.46 µM [rising, full curve, poor fit]",
COc1ccc(C(=O)NC(=S)N2CCN(c3ccccc3O)CC2)cc1,"20.6 µM [rising, partial curve, poor fit]",
O=C(Oc1cccc(NC(=O)c2ccccc2Cl)c1)c1ccc([N+](=O)[O-])cc1,"5.62 µM [falling, partial curve, poor fit]",
COc1cccc(C(=O)Nc2nc3c(c(=O)[nH]2)CCCC3)c1,"0.651 µM [falling, full curve]",
CCCn1c(=O)[nH]c(=O)c2c1nc(-c1cc([N+](=O)[O-])ccc1Cl)n2CCOC,"11.2 µM [rising, partial curve]","14.1 µM [falling, partial curve, poor fit]"
CN1CCC(OC(=O)c2ccc(Cl)cc2Cl)CC1,"3.16 µM [rising, full curve]",
NC(=O)c1ccccc1-c1noc(-c2ccccc2F)n1,"2.91 µM [rising, partial curve, poor fit]",
O=C(CCCn1c(=S)[nH]c2ccccc2c1=O)NCCSCc1ccccc1,"6.31 µM [falling, single point]",
O=C(CSc1nc2ccccc2c(=O)n1-c1ccccc1F)NC1CC1,"13 µM [rising, partial curve, poor fit]","18.4 µM [falling, partial curve]"
CCOC(=O)n1n[n+]([O-])c2ccccc21,"2.06 µM [rising, partial curve, poor fit]",
Cc1cc(C)nc(N2CCC(C(=O)Nc3nnc(C)s3)CC2)n1,"35.5 µM [rising, single point]",
COc1ccc(-c2n[nH]c(=S)n2/N=C/C=C\c2ccccc2OC)cc1,"9.2 µM [falling, partial curve, poor fit]",
CSc1cccc(Nc2cc(C(=O)NCCCN(Cc3ccccc3)C(C)C)c3ccccc3n2)c1,"35.5 µM [falling, single point]",
CN(C)c1ccc(/C=C2/NC(=O)NC2=O)cc1,"6.51 µM [rising, single point]",
Cc1ccc(Oc2ncccc2COC(=O)Nc2ccccc2C)cc1,"0.1 µM [falling, full curve, poor fit]",
Cc1c(C(=O)C(C)C)n(C)c2ccccc12,"10 µM [rising, partial curve, poor fit]",
Cc1ccc(C(=O)Nc2ccc3c(c2)OCCO3)o1,"6.51 µM [rising, single point]",

# Reprinted at random: three records from the list, in no set order.
Structure (SMILES),AC50 [1],AC50 [2]
COc1cccc(C(=O)Nc2nc3c(c(=O)[nH]2)CCCC3)c1,"0.651 µM [falling, full curve]",
COc1ccc(C(=O)NCCC2=CCCCC2)cc1,"29.1 µM [falling, single point]",
O=C(Nc1nccs1)c1ccc(F)c(S(=O)(=O)N2CCOCC2)c1,"22.4 µM [falling, partial curve, poor fit]",
